The record followed here is PMC6566870.

Protein sequences, listed by entry. Tags and fused reporters are not part of them. Residues count along the entry.
UniProt P10147, residues 24-92: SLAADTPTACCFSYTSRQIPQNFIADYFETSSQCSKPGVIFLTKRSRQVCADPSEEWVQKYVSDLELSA
UniProt P32121: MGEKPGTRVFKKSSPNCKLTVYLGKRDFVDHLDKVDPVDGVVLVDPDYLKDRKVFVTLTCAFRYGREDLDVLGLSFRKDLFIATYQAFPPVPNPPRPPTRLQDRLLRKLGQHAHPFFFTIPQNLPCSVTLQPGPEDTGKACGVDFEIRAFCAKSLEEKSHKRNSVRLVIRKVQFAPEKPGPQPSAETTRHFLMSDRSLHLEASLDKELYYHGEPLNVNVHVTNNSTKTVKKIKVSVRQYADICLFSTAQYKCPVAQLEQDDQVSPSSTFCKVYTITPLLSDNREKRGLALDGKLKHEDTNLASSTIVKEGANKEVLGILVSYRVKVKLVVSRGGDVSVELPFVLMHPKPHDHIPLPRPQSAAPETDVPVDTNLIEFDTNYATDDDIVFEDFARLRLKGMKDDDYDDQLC

No constants are given. Whether binding was seen depends on the method and setting. For some assays here: Binding seen in cells or lysates may run through a third protein. Some results given as binding are weak or reduced against the parent protein; the word gives no strength. For some assays here: Sequences can lack the tags named with a protein.

For experiment [1], the target named is N-terminally His6-tagged cMyc-tagged human CCR1 (human) (UniProt P32246). Nature of the experiment: radioligand binding; competitive displacement of 50 pM 125I-CCL3 from membranes of Flp-In T-REx 293 cells expressing CCR1; 2 h at 37 °C; two sets of experiments (Table 1, Table 3); only the binder purified.
For experiment [2], the target named is T1, CCR1 fused to RLuc8 (human) (UniProt P32246).
T1 sequence: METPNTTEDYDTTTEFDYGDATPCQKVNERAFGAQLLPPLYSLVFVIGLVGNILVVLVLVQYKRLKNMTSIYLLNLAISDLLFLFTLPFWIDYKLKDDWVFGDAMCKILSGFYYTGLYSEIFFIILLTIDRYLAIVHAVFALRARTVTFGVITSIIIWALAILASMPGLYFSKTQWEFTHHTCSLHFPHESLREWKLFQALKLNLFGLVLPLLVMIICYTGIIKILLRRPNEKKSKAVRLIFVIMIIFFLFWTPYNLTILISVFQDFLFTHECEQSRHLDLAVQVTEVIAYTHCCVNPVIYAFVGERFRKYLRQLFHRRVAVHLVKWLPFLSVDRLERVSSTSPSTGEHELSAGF
Nature of the experiment: FRET or BRET; BRET between CCR1-RLuc8 and βArr2-YFP in transiently transfected Flp-In T-REx 293 cells; chemokine added 5 min after coelenterazine h, 10 min at 37 °C. Background: Bioluminescence resonance energy transfer reports proximity on the nanometre scale.

Turning to “125I-labeled CCL3 (from UniProt P10147 24-92) (ligand)”, the binding entry in experiment [1] is given as “binds”. Regarding “βArr2 fused to YFP (from UniProt P32121 1-409)”, the binding entry in experiment [2] is “binds”.
